Data as given in the supplement of paper PMC10849652.
This is one part of the list.

Chains of the proteins cited; added tags and fusions are not shown. Lines headed by an entry give the natural chain unless they say otherwise; changes in a name come on top.
UniProt P27707: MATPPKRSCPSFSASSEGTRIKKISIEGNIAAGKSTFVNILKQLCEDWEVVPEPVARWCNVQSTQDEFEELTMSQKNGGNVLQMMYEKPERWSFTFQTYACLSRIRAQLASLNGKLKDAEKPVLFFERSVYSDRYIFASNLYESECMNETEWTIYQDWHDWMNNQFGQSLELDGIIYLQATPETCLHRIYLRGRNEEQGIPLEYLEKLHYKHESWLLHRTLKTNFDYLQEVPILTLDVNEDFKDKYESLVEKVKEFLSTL
UniProt P07108: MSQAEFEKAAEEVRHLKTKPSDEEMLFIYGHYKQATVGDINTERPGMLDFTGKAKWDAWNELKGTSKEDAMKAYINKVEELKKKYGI
UniProt Q9NXF7, whole entry, looked up: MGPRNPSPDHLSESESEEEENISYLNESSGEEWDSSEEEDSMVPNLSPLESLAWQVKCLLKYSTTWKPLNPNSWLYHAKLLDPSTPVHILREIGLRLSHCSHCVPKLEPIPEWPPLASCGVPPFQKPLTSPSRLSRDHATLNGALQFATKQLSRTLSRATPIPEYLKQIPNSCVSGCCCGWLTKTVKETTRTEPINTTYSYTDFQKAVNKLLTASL
UniProt Q9H773: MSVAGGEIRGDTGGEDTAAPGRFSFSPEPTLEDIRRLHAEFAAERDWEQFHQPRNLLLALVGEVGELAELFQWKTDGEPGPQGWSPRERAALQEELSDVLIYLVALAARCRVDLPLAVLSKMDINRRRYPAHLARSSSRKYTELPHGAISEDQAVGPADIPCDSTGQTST
UniProt Q9NY93: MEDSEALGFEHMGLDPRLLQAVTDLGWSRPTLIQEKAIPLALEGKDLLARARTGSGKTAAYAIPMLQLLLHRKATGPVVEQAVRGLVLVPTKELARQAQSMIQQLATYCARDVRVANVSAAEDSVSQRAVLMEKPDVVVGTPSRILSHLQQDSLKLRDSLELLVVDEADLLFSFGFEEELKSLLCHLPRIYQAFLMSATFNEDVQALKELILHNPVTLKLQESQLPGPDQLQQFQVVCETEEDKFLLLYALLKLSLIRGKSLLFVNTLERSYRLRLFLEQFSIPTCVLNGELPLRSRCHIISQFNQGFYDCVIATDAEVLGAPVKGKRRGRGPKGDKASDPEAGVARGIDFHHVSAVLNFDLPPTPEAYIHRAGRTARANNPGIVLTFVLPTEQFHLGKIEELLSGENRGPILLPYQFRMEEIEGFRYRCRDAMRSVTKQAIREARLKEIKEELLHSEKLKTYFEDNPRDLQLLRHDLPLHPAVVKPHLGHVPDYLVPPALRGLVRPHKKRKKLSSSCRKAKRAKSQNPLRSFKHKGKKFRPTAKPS
UniProt Q5TDH0: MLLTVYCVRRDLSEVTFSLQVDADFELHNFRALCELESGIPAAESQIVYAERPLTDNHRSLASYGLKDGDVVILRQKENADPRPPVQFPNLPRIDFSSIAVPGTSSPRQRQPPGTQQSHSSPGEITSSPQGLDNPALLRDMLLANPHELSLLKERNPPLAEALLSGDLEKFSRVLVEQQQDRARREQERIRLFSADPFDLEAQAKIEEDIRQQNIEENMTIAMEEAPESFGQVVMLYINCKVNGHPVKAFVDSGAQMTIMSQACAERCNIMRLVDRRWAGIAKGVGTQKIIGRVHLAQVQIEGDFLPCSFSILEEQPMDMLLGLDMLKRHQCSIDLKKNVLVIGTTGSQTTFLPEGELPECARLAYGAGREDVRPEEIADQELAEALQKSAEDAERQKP
UniProt Q9UJW0, whole entry, looked up: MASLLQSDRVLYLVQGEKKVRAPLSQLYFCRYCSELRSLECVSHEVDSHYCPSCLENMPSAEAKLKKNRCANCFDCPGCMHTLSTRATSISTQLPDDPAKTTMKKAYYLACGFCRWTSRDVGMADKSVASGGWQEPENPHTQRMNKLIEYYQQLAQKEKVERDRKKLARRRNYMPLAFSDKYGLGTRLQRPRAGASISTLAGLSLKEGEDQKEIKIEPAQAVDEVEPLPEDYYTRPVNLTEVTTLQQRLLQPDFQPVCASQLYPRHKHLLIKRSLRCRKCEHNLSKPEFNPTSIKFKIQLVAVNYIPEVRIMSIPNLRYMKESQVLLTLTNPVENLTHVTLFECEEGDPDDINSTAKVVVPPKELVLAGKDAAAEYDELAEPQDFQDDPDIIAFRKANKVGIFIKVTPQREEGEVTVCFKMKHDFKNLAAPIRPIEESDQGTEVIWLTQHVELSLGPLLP
UniProt Q8TEB1, whole entry, looked up: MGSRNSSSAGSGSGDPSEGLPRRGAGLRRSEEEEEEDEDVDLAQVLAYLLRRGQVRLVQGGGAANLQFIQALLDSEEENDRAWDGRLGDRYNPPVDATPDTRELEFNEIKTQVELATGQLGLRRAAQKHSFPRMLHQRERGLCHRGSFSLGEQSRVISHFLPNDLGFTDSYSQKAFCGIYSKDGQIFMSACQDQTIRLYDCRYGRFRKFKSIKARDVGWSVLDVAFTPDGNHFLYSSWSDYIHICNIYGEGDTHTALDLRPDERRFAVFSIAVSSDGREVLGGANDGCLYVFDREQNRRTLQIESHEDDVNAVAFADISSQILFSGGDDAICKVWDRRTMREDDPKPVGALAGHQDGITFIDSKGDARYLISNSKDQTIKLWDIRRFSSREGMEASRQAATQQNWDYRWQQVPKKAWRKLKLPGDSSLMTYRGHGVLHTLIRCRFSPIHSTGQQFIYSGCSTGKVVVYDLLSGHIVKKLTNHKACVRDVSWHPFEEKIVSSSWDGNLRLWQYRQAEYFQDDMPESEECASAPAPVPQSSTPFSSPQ
UniProt Q6PI48: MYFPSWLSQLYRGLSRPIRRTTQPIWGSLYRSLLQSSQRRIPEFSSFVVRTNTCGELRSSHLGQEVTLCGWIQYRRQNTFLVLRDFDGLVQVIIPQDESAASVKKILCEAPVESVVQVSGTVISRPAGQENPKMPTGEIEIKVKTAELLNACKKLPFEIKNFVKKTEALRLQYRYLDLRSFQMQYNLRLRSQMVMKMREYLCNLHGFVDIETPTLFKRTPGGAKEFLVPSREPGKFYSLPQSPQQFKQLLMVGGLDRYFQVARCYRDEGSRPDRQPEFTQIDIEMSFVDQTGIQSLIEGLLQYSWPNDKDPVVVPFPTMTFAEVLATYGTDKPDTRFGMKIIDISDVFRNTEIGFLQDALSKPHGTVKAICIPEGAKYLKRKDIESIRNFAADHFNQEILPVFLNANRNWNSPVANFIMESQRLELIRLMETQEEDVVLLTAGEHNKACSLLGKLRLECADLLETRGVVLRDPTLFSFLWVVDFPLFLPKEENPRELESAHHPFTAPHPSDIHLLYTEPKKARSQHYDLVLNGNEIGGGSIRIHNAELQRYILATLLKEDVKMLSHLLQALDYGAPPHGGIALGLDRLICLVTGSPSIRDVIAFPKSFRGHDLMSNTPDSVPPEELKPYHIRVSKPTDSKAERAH
UniProt Q9UIK4: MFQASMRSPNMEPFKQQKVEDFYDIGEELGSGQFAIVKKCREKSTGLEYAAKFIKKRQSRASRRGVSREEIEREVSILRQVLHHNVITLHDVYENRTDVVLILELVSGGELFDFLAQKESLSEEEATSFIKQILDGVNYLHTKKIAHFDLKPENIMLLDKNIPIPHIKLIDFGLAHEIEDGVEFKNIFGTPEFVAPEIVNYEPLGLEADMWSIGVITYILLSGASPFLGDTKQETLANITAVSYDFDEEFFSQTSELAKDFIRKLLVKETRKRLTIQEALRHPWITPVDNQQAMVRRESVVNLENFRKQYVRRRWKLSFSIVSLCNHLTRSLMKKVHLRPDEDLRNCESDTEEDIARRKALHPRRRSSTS
UniProt Q9Y315: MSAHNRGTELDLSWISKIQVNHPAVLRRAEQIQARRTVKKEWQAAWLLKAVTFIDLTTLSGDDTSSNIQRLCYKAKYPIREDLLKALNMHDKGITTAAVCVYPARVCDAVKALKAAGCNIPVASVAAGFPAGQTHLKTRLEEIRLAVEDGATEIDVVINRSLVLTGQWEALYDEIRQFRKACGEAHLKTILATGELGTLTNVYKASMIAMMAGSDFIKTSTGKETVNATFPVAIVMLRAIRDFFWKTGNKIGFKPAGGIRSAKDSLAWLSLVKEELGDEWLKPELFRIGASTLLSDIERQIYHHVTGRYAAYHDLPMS
UniProt O00399, whole entry, looked up: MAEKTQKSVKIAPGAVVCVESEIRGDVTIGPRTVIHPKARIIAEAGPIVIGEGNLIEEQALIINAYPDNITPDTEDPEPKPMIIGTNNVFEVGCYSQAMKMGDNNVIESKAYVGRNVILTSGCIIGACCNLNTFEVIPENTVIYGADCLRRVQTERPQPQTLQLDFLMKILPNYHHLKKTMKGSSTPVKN
UniProt Q5VW00: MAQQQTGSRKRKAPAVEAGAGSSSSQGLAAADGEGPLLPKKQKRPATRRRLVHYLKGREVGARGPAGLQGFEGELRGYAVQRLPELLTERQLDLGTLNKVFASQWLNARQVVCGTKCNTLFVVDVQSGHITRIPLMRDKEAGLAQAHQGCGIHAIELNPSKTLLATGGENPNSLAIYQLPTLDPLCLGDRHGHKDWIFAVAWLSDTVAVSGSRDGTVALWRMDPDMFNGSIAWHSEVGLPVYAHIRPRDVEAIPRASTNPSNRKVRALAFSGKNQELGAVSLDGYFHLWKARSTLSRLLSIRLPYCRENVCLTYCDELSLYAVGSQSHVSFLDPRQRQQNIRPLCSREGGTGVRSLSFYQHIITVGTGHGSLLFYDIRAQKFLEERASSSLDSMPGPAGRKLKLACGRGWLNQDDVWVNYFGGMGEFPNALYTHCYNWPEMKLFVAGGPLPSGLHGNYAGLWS
UniProt Q9GZP9: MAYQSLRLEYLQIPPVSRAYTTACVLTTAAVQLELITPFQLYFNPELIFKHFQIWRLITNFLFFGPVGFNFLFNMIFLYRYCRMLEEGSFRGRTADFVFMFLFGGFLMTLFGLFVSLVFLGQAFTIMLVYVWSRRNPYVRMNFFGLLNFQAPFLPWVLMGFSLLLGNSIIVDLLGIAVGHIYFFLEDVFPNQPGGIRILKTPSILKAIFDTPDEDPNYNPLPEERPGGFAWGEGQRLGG
UniProt Q96SQ9: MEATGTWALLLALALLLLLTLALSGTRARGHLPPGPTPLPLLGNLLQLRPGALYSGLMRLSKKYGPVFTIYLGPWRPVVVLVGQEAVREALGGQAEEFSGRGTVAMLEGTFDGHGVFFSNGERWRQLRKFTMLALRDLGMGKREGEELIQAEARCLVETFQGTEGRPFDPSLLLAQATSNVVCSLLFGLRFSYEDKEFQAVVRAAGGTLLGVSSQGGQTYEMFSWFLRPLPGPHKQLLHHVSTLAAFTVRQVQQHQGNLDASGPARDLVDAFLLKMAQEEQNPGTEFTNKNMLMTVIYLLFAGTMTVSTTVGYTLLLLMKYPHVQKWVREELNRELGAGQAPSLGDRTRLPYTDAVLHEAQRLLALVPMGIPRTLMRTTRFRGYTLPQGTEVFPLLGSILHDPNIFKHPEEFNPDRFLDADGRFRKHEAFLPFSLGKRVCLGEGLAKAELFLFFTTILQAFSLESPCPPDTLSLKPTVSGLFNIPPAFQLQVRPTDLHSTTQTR
UniProt Q9UBU7: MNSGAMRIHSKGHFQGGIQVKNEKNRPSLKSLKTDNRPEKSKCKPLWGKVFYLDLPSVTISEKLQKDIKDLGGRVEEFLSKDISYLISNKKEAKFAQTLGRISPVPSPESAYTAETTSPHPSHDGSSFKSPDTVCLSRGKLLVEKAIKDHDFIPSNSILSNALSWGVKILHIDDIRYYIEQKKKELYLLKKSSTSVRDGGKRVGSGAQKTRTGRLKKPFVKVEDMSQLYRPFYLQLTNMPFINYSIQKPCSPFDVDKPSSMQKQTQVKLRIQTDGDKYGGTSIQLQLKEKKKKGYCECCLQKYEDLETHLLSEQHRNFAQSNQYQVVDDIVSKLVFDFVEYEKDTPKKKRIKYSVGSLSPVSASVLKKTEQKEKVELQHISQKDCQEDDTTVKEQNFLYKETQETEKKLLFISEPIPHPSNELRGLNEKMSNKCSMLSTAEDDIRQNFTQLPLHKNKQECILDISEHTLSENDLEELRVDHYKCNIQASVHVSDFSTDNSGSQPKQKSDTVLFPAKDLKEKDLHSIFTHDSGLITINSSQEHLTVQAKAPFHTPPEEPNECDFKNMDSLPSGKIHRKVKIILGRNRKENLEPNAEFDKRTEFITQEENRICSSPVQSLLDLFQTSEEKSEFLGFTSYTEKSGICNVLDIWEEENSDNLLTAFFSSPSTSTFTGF
UniProt O00273: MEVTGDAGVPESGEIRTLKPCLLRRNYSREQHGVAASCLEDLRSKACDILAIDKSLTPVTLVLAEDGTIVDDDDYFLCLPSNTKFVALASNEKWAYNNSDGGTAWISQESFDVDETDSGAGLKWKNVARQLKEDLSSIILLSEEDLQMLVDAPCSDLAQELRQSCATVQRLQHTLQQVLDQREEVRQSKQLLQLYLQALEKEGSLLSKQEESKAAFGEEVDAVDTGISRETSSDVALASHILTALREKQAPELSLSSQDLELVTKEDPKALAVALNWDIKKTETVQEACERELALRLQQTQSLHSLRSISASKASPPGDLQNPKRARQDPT

Tests used:
Assay in all cases: log2 fold change, soluble protein after heating vs DMSO (PISA); higher = thermal stabilisation; K562 lysate, 10 uM; active = over 0.2 and 3.5 SD of the protein, either way, in both replicates (recomputed)
vemurafenib = compound: CCCS(=O)(=O)Nc1ccc(F)c(C(=O)c2c[nH]c3ncc(-c4ccc(Cl)cc4)cc23)c1F [vemurafenib]
In short: (§1)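 To prepare the extract, K562 pellets were dounce-homogenised in PBS pH 7.4 with 1 mM MgCl2, giving crude material at 1 mg/mL protein. This was treated with 10 μM compound for 30 min, then heated in aliquots for 3 min over 48°C-58°C before pooling and addition of NP-40 to 0.5% at 4°C. Centrifugation at 21,000xg for 90 min left soluble protein in the supernatant, which TMTpro 16plex LC-MS/MS quantified with equalised channel sums. Results are log-two fold changes in thermal stability compared with solvent controls, from duplicates.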

[1] = compound: CCCS(=O)(=O)Nc1ccc(F)c(C(=O)c2c[nH]c3ncc(Cl)cc23)c1F
In short: as §1

barasertib = compound: CCN(CCCOc1ccc2c(Nc3cc(CC(=O)Nc4cccc(F)c4)[nH]n3)ncnc2c1)CCOP(=O)(O)O [barasertib]
In short: as §1

[2] = compound: CC[C@@H]1C(=O)N(C)c2cnc(Nc3ccc(C(=O)NC4CCN(C)CC4)cc3OC)nc2N1C1CCCC1
In short: as §1

volasertib = compound: CC[C@@H]1C(=O)N(C)c2cnc(Nc3ccc(C(=O)N[C@H]4CC[C@H](N5CCN(CC6CC6)CC5)CC4)cc3OC)nc2N1C(C)C [volasertib]
In short: as §1

[3] = compound: CCn1c(C(=O)N(C2CC2)C2CC2)cc2c3c(ncn3C)c(Nc3cc(C)n(C)n3)nc21
In short: as §1

[4] = compound: CCn1cc(-c2ccnc3[nH]c(-c4cccc(CN(C)C)c4)cc23)c(-c2ccc(NC(=O)N(C)C)cc2)n1
In short: as §1

[5] = compound: CN1CCC(CNc2ccc3ncc(-c4cccc(OC(F)(F)F)c4)n3n2)CC1
In short: as §1

saracatinib = compound: CN1CCN(CCOc2cc(OC3CCOCC3)c3c(Nc4c(Cl)ccc5c4OCO5)ncnc3c2)CC1 [saracatinib]
In short: as §1

sotrastaurin = compound: CN1CCN(c2nc(C3=C(c4c[nH]c5ccccc45)C(=O)NC3=O)c3ccccc3n2)CC1 [sotrastaurin]
In short: as §1

Target | log2 fold change (vemurafenib) | log2 fold change [1] | log2 fold change (barasertib) | log2 fold change [2] | log2 fold change (volasertib) | log2 fold change [3] | log2 fold change [4] | log2 fold change [5] | log2 fold change (saracatinib) | log2 fold change (sotrastaurin)
DCK (UniProt P27707) | inactive: 0.017 | inactive: 0.005 | inactive: -0.008 | inactive: 0.06 | inactive: 0.099 | inactive: -0.027 | inactive: 0.188 | inactive: -0.058 | inactive: 0.007 | inactive: 0.024
DBI isoform 5 (UniProt P07108) | inactive: -0.038 | inactive: -0.015 | inactive: 0.057 | inactive: 0.06 | inactive: 0.113 | inactive: -0.02 | inactive: -0.001 | inactive: -0.162 | inactive: 0.048 | inactive: -0.018
DDHD2 (UniProt O94830) | inactive: 0.042 | inactive: 0.012 | inactive: 0.009 | inactive: 0.023 | inactive: -0.009 | inactive: 0.009 | inactive: -0.056 | inactive: 0 | inactive: 0.04 | inactive: -0.003
DDOST (UniProt P39656) | inactive: 0.032 | inactive: -0.006 | inactive: -0.011 | inactive: 0.017 | inactive: 0.016 | inactive: -0.051 | inactive: -0.121 | inactive: 0.072 | inactive: 0.005 | inactive: 0.01
DCAF16 (UniProt Q9NXF7) | inactive: 0.04 | inactive: 0.034 | inactive: 0.028 | inactive: 0.046 | inactive: -0.006 | inactive: 0.003 | inactive: 0.195 | inactive: -0.13 | inactive: -0.023 | inactive: -0.006
DCTPP1 (UniProt Q9H773) | inactive: 0.073 | inactive: -0.064 | inactive: 0.203 | inactive: -0.012 | inactive: 0.015 | inactive: -0.006 | inactive: -0.024 | inactive: -0.084 | inactive: -0.008 | inactive: 0.034
DDX23 (UniProt Q9BUQ8) | inactive: 0.009 | inactive: 0.01 | inactive: 0.032 | inactive: -0.012 | inactive: -0.01 | inactive: 0.029 | inactive: 0.008 | inactive: -0.051 | inactive: 0.002 | inactive: 0.004
DDX56 (UniProt Q9NY93) | inactive: 0.026 | inactive: 0.008 | inactive: 0.059 | inactive: 0.099 | inactive: -0.067 | inactive: -0.01 | inactive: -0.038 | inactive: 0.043 | inactive: -0.007 | inactive: 0.029
DDI2 isoform 3 (UniProt Q5TDH0) | inactive: 0.015 | inactive: 0.01 | inactive: -0.029 | inactive: 0.016 | inactive: -0.003 | inactive: -0.055 | inactive: -0.015 | inactive: 0.029 | inactive: 0.005 | inactive: -0.018
DCTN4 (UniProt Q9UJW0) | inactive: -0.012 | inactive: 0.015 | inactive: -0.03 | inactive: 0.067 | inactive: 0.007 | inactive: -0.043 | inactive: -0.03 | inactive: 0.035 | inactive: -0.01 | inactive: -0.04
DCAF11 (UniProt Q8TEB1) | inactive: 0 | inactive: -0.012 | inactive: 0.039 | inactive: -0.004 | inactive: -0.005 | inactive: -0.023 | inactive: 0.107 | inactive: 0.021 | inactive: -0.018 | inactive: -0.039
DDHD1 (UniProt Q8NEL9) | inactive: 0.071 | inactive: 0.019 | inactive: -0.005 | inactive: 0.049 | inactive: 0.056 | inactive: 0.061 | inactive: -0.032 | inactive: 0.039 | inactive: 0.077 | inactive: 0.064
DARS2 (UniProt Q6PI48) | inactive: 0.056 | inactive: 0.001 | inactive: 0.025 | inactive: -0.008 | inactive: -0.075 | inactive: 0.036 | inactive: -0.022 | inactive: -0.025 | inactive: 0.003 | inactive: 0.022
DAPK2 isoform 2 (UniProt Q9UIK4) | inactive: -0.363 | inactive: -0.034 |  |  | inactive: 0.025 | inactive: -0.279 |  |  |  | 
DAPK1 isoform 3 (UniProt P53355) | inactive: 0.047 | inactive: -0.203 |  |  | inactive: -0.138 | inactive: 0.022 | inactive: 0.138 | inactive: -0.04 | inactive: 0.022 | inactive: -0.039
DERA (UniProt Q9Y315) | inactive: -0.013 | inactive: -0.001 | inactive: -0.064 | inactive: 0.077 | inactive: 0.025 | inactive: -0.031 | active: 0.985 | inactive: -0.115 | inactive: 0 | inactive: -0.03
DAGLB (UniProt Q8NCG7) | inactive: 0.042 | inactive: -0.02 | inactive: -0.016 | inactive: -0.012 | inactive: -0.011 | inactive: -0.039 | inactive: 0.03 | inactive: 0.092 | inactive: -0.04 | inactive: -0.037

Target | log2 fold change (vemurafenib) | log2 fold change [1] | log2 fold change (barasertib) | log2 fold change [2] | log2 fold change (volasertib) | log2 fold change [3] | log2 fold change [4] | log2 fold change [5] | log2 fold change (saracatinib) | log2 fold change (sotrastaurin)
DCTN6 (UniProt O00399) | inactive: -0.041 | inactive: 0.01 | inactive: 0.026 | inactive: 0.002 | inactive: 0.028 | inactive: -0.022 | inactive: 0.025 | inactive: 0.003 | inactive: 0.007 | inactive: -0.037
DDAH1 (UniProt O94760) | inactive: 0.054 | inactive: 0.071 |  | inactive: 0.04 | inactive: 0.068 | inactive: 0.061 | inactive: -0.068 | inactive: -0.051 | active: -0.308 | inactive: -0.022
DDX27 (UniProt Q96GQ7) | inactive: 0.019 | inactive: 0.05 | inactive: 0.018 | inactive: -0.017 | inactive: -0.003 | inactive: -0.025 | inactive: 0.036 | inactive: -0.014 | inactive: 0.038 | inactive: -0.009
DCAF12L2 (UniProt Q5VW00) | inactive: 0.031 |  | inactive: 0.476 | inactive: -0.093 |  |  |  |  |  | 
DARS (UniProt P14868) | inactive: 0.02 | inactive: 0.021 | inactive: 0.021 | inactive: -0.099 | inactive: -0.043 | inactive: 0.062 | inactive: 0.026 | inactive: -0.012 | inactive: 0.018 | inactive: 0.011
DDA1 (UniProt Q9BW61) | inactive: -0.02 | inactive: 0.038 | inactive: -0.004 | inactive: 0.003 | inactive: 0 | inactive: 0.046 | inactive: 0 | inactive: -0.023 | inactive: 0.019 | inactive: -0.025
DENND1B (UniProt Q6P3S1) | inactive: 0.128 | inactive: -0.036 | inactive: 0.01 |  | inactive: -0.05 | inactive: -0.134 | inactive: 0.022 | inactive: -0.024 | inactive: -0.018 | inactive: 0.04
DERL2 (UniProt Q9GZP9) | inactive: 0.079 | inactive: -0.012 | inactive: -0.009 | inactive: 0.02 | inactive: -0.163 | inactive: -0.057 | inactive: -0.06 | inactive: -0.003 | inactive: 0.072 | inactive: 0.048
CYP2S1 isoform 2 (UniProt Q96SQ9) | inactive: 0.062 | inactive: 0.136 |  | inactive: 0.119 | inactive: 0.038 | inactive: 0.063 |  |  | inactive: 0.017 | inactive: 0.081
DAPK3 (UniProt O43293) | inactive: -0.167 | inactive: -0.068 |  |  | inactive: 0.021 |  | inactive: -0.009 | inactive: 0.337 |  | 
DBF4 (UniProt Q9UBU7) | inactive: 0.001 |  | inactive: 0.054 | inactive: -0.015 |  | inactive: 0.001 | inactive: -0.003 | inactive: -0.245 | inactive: 0.001 | inactive: -0.004
DDX10 (UniProt Q13206) | inactive: 0.028 | inactive: 0.015 | inactive: 0.205 | inactive: 0.056 | inactive: -0.024 | inactive: -0.019 | inactive: 0.009 | inactive: 0 | inactive: -0.053 | inactive: -0.099
CYP2R1 (UniProt Q6VVX0) | inactive: -0.025 | inactive: 0.012 |  | inactive: -0.106 | inactive: 0.061 | inactive: 0.063 |  |  | inactive: 0.01 | 
DENND1A isoform 6 (UniProt Q8TEH3) | inactive: -0.208 | inactive: 0.018 | inactive: -0.311 | inactive: 0.07 | inactive: 0.01 | inactive: 0.058 |  |  | inactive: 0.116 | inactive: -0.026
DCAF10 (UniProt Q5QP82) | inactive: -0.022 |  | inactive: -0.01 | inactive: 0.023 |  | inactive: -0.054 | inactive: -0.159 | inactive: 0.04 | inactive: -0.127 | inactive: -0.155
DFFA isoform 2 (UniProt O00273) | inactive: 0.049 | inactive: 0.119 | inactive: -0.113 |  | inactive: 0.021 | inactive: -0.017 | inactive: 0.145 | inactive: -0.051 | inactive: -0.056 | inactive: 0.09

2 records drawn at random from those above, as already listed:
Target | log2 fold change (vemurafenib) | log2 fold change [1] | log2 fold change (barasertib) | log2 fold change [2] | log2 fold change (volasertib) | log2 fold change [3] | log2 fold change [4] | log2 fold change [5] | log2 fold change (saracatinib) | log2 fold change (sotrastaurin)
DCAF12L2 (UniProt Q5VW00) | inactive: 0.031 |  | inactive: 0.476 | inactive: -0.093 |  |  |  |  |  | 
DDX10 (UniProt Q13206) | inactive: 0.028 | inactive: 0.015 | inactive: 0.205 | inactive: 0.056 | inactive: -0.024 | inactive: -0.019 | inactive: 0.009 | inactive: 0 | inactive: -0.053 | inactive: -0.099
